Experimental findings from publication PMC6523311 (Pharmaceutics, 2019) are described below.

For some assays here: HELM strings list residues between dots; [ac] is acetyl, [am] amide, other brackets name non-standard units. A value given as a limit tells only on which side of the number the result lay.

Series [1] can be described thus: general procedure: Fmoc solid-phase peptide synthesis; 2-chlorotrityl chloride resin; DIC/Oxyma Pure; HATU/HOAt/DIPEA (cyclisation); PyBOP/HOBt/DIPEA (conjugation). The following applies: whole synthesis.
The nature of series [2]: general procedure: Fmoc solid-phase peptide synthesis; 2-chlorotrityl chloride resin loaded with 0.96 mmol/g Fmoc-Gly-OH; DIC/Oxyma Pure; HATU/HOAt/DIPEA (cyclisation); PyBOP/HOBt/DIPEA (conjugation). As to conditions: for final purity (method not given): 220 nm.

Substance Alkynyl-PEG5-Val-Cit-Gly-Pro came in with an isolated mass in series [1] of 77 mg. The isolated yield in series [1] (scale of the general procedure 250 mg resin) is recorded as 32%. Further, the “final purity (method not given)” value in series [2] (whole synthesis, scale of the general procedure 250 mg resin) came to 96% purity.

Take Alkynyl-PEG5-Val-Cit-Gly-Pro-Cry-55gly: in series [2] (conjugation step), the conjugation yield worked out at 78% and the “final purity (method not given)” value is above 99% purity.

For Alkynyl-PEG5-Val-Cit-Gly-Pro-Cy5.5, in series [2] (conjugation step), the conjugation yield is 43% and the “final purity (method not given)” value is listed as 91% purity.

With “PEPTIDE1{R.G.D.[dF].K}|PEPTIDE2{[N3Pr]}$PEPTIDE1,PEPTIDE1,1:R1-5:R2|PEPTIDE1,PEPTIDE2,5:R3-1:R2$$$V2.0”, in series [2] (cyclisation step), the cyclisation yield is 10% and the “final purity (method not given)” value is listed as above 99% purity.

For c(RGDfK)-PEG5-Val-Cit-Gly-Pro-Cry-55gly, in series [2] (conjugation step), the conjugation yield was determined as 54% and the “final purity (method not given)” value is recorded as above 99% purity.

Regarding c(RGDfK)-PEG5-Val-Cit-Gly-Pro-Cy5.5, in series [2] (conjugation step), the conjugation yield is on record as 68% and the “final purity (method not given)” value was above 99% purity.

Take c(RGDfK)-PEG5-Val-Cit-PABC-Cry-55gly: in series [2] (conjugation step), the conjugation yield amounted to 64% and the “final purity (method not given)” value is on record as above 99% purity.

On to c(RGDfK)-PEG5-Val-Cit-PABC-Cy5.5, for which, in series [2] (conjugation step), the conjugation yield was found to be 62% and the “final purity (method not given)” value is listed as above 99% purity.
